This sample is rich in variants without activity.
Key:
[1] = tested on: biotinyl-Met-oxazolone; assay: self-aminoacylation, catalytic enhancement (BMO) (fold over background); higher = more active; k-Seq, kA / k0A0; sequences stand for … in GGGAAUGGAUCCACAUCUACGAAUUC…UUCACUGCAGACUUGACGAAGCUG
Summary of the method: (§1)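 The uncatalyzed rate is the low-activity peak of a bimodal Gaussian fit, and catalytic enhancement is median kA divided by it. The kA values came from pseudo-first-order fits, with 1000 bootstraps, of per-sequence fraction reacted measured by streptavidin capture, triplicate qPCR and Illumina sequencing. Mutagenized RNA pools with a 21-nt variable region (0.43 μM) were reacted with each biotinyl-aminoacyl-oxazolone at 2–1250 μM in 50 μL HEPES/NaCl/KCl/MgCl2/CaCl2 buffer with 5% acetonitrile, pH 6.9–7.0, for 90 minutes at room temperature.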

[2] = tested on: biotinyl-Trp-oxazolone; assay: self-aminoacylation, catalytic enhancement (BWO) (fold over background); higher = more active; k-Seq, kA / k0A0; sequences stand for … in GGGAAUGGAUCCACAUCUACGAAUUC…UUCACUGCAGACUUGACGAAGCUG
Summary of the method: as §1

[3] = tested on: biotinyl-Phe-oxazolone; assay: self-aminoacylation, catalytic enhancement (BFO) (fold over background); higher = more active; k-Seq, kA / k0A0; sequences stand for … in GGGAAUGGAUCCACAUCUACGAAUUC…UUCACUGCAGACUUGACGAAGCUG
Summary of the method: as §1

[4] = tested on: biotinyl-Val-oxazolone; assay: self-aminoacylation, catalytic enhancement (BVO) (fold over background); higher = more active; k-Seq, kA / k0A0; sequences stand for … in GGGAAUGGAUCCACAUCUACGAAUUC…UUCACUGCAGACUUGACGAAGCUG
Summary of the method: as §1

[5] = tested on: biotinyl-Leu-oxazolone; assay: self-aminoacylation, catalytic enhancement (BLO) (fold over background); higher = more active; k-Seq, kA / k0A0; sequences stand for … in GGGAAUGGAUCCACAUCUACGAAUUC…UUCACUGCAGACUUGACGAAGCUG
Summary of the method: as §1

[6] = tested on: biotinyl-Ile-oxazolone; assay: self-aminoacylation, catalytic enhancement (BIO) (fold over background); higher = more active; k-Seq, kA / k0A0; sequences stand for … in GGGAAUGGAUCCACAUCUACGAAUUC…UUCACUGCAGACUUGACGAAGCUG
Summary of the method: as §1

Sequence	self-aminoacylation [1]	self-aminoacylation [2]	self-aminoacylation [3]	self-aminoacylation [4]	self-aminoacylation [5]	self-aminoacylation [6]
CUACUAUAAACAAUCGGUCUG [Fam1A.1 aminoacylation ribozyme variant]	0.803	0.766	0.742	0.928	0.805	0.808
CUACUUCAGACAAUCGGUCGG [Fam1A.1 aminoacylation ribozyme variant]	1.41	1.58	1.04	1	1.6	1.2
ACUCACCUAGGUCAUCGGGUA [Fam2.2 aminoacylation ribozyme variant]	19.9	14.9	157	10.1	27	11.4
CCACCCUUCAAGCAAUGGGUC [Fam1B.1 aminoacylation ribozyme variant]	1.11	1.34	0.896	1.21	0.924	1.01
AUUAACCUGGACAUCGAGUGA [Fam2.1 aminoacylation ribozyme variant]	6.63	8.58	32.9	2.89	6.88	2.99
AUUACCCUGGUCAUCGAAUGU [Fam2.1 aminoacylation ribozyme variant]	0.925	0.653	0.64	0.788	1.06	0.894
CCAAUUCAAACAAUCGGUCUG [Fam1A.1 aminoacylation ribozyme variant]	1.02	5.22	6.78	1.11	1.16	1.11
CUACGUCAAACAAUCGCUCUG [Fam1A.1 aminoacylation ribozyme variant]	1.85	1.16	3.08	1.7	2.07	1.71
CCACUCUUCAAGCAAUCGGAC [Fam1B.1 aminoacylation ribozyme variant]	0.787	1.15	0.832	0.937	0.661	0.984
AGUACCCUGGUCACCGAGUGA [Fam2.1 aminoacylation ribozyme variant]	8.83	11.1	54.5	4.11	9.52	4.52
AUUACCCCGGUCAUCGAGUGC [Fam2.1 aminoacylation ribozyme variant]	1.18	1.19	0.415	1.09	1.04	0.849
AUUCACCAAGGUCGUCGGGUG [Fam2.2 aminoacylation ribozyme variant]	2.2	2.29	12.9	2.58	3.05	2.09
AUUACCCUGGACAUCGAGUUA [Fam2.1 aminoacylation ribozyme variant]	0.682	0.639	0.728	0.75	0.772	0.805
AUGUUUCCUAAUAGUCGCAAG [Fam3.1 aminoacylation ribozyme variant]	1	0.995	0.67	1.17	1.05	1.18
CUACUUCAAACAAUCGGGUUG [Fam1A.1 aminoacylation ribozyme variant]	1.44	1.82	1.62	1.3	1.24	1.21
CCACACUUCAAGCAAACCGUC [Fam1B.1 aminoacylation ribozyme variant]	0.526	0.715	0.872	0.845	0.639	0.783
AUUACCCUGGUGGUCGAGUGA [Fam2.1 aminoacylation ribozyme variant]	2.28	1.83	12.8	1.61	1.95	1.47
CCACACUUCAAGAAAUCGAUC [Fam1B.1 aminoacylation ribozyme variant]	0.402	0.335	1.02	0.656	0.382	0.481
CCGCACUUCAAGCAAUUGGUC [Fam1B.1 aminoacylation ribozyme variant]	0.679	1.27	1.33	0.748	0.853	0.872
CCACAUUUCAAGCAAUCAGUC [Fam1B.1 aminoacylation ribozyme variant]	0.755	0.884	1.71	1.1	0.906	1
CUACUUCAAUCAAUAGGUCUG [Fam1A.1 aminoacylation ribozyme variant]	0.664	0.582	0.9	0.813	0.619	0.764
CUACUUUAAACAAUCGCUCUG [Fam1A.1 aminoacylation ribozyme variant]	0.611	0.441	0.46	0.668	0.457	0.628
CUACAUCACACAAUCGGUCUG [Fam1A.1 aminoacylation ribozyme variant]	0.842	0.687	1.21	0.868	0.827	0.882
CUACUUCACACAAUCGGUCAG [Fam1A.1 aminoacylation ribozyme variant]	0.611	0.663	0.853	0.843	0.761	0.886
AUUACCUUGGUCAUCGAGUAA [Fam2.1 aminoacylation ribozyme variant]	1.23	1	1.22	1.23	1.3	1.25
CCACGCUUCAAGCAGUCGGUC [Fam1B.1 aminoacylation ribozyme variant]	1.03	0.91	1	1.33	0.887	0.755

Sequence	self-aminoacylation [1]	self-aminoacylation [2]	self-aminoacylation [3]	self-aminoacylation [4]	self-aminoacylation [5]	self-aminoacylation [6]
CCACACUUCAAGCGAACGGUC [Fam1B.1 aminoacylation ribozyme variant]	0.624	0.652	0.607	0.719	0.506	0.649
AAGUUUGCUUAUAGUCGCUAG [Fam3.1 aminoacylation ribozyme variant]	0.705	0.61	1	0.646	0.628	0.884
AAGUUUGCUAAUAGUCGGACG [Fam3.1 aminoacylation ribozyme variant]	0.764	0.829	0.715	0.625	0.597	0.808
CCACACUUCAAUCAAUCGGUC [Fam1B.1 aminoacylation ribozyme variant]	1.05	21.8	42.7	1.17	1.51	1.1
AAGUUUGCUCAUGGUCGCAAG [Fam3.1 aminoacylation ribozyme variant]	0.811	0.989	1.06	0.795	0.883	0.928
AUUACCCUGGUAAUCGAGGGA [Fam2.1 aminoacylation ribozyme variant]	0.924	0.832	0.55	1.04	0.931	1.1
AAGGUUGCUAAUUGUCGCAAG [Fam3.1 aminoacylation ribozyme variant]	1.36	2.85	1.4	1.41	1.14	1.56
AUACUUCAGACAAUCGGUCUG [Fam1A.1 aminoacylation ribozyme variant]	0.793	0.724	1.01	0.811	1.02	0.795
CUACUUCAAACAAUCGGUCUU [Fam1A.1 aminoacylation ribozyme variant]	1.06	15.3	31.2	1.05	1.3	1.09
AAGUUUGCGAAUAAUCGCAAG [Fam3.1 aminoacylation ribozyme variant]	1.03	0.905	1.23	1.06	1.18	1.12
CCACAAUUCUAGCAAUCGGUC [Fam1B.1 aminoacylation ribozyme variant]	1.36	0.893	1.39	1.41	1.22	1.53
AUUCAGCUAGGUCAUCAGGUG [Fam2.2 aminoacylation ribozyme variant]	2.38	2.09	8.1	2.04	2.39	1.63
AUUACCCUGGACAUCGAGUAA [Fam2.1 aminoacylation ribozyme variant]	0.95	0.875	0.788	1.03	1.08	1.15
AUUACACUGGUCAUCGAUUGA [Fam2.1 aminoacylation ribozyme variant]	0.897	0.662	0.701	0.863	0.905	0.92
AUUCACCUACGUCAUCGGGUC [Fam2.2 aminoacylation ribozyme variant]	1.25	0.963	4.31	1.21	1.36	1.17
CCACACCUCAAGCAAUCCGUC [Fam1B.1 aminoacylation ribozyme variant]	1.02	0.678	1.25	1.57	1.24	1.41
CAGUUUGCUAAUACUCGCAAG [Fam3.1 aminoacylation ribozyme variant]	0.865	1.17	1.04	0.714	0.945	0.873
CUACUUCUAACACUCGGUCUG [Fam1A.1 aminoacylation ribozyme variant]	0.765	0.499	0.73	0.855	0.835	0.762
ACGUUUGCUAAUAGUCGGAAG [Fam3.1 aminoacylation ribozyme variant]	0.611	0.882	3.98	0.983	0.62	1.01
CAACACUUCAUGCAAUCGGUC [Fam1B.1 aminoacylation ribozyme variant]	0.874	0.761	1.01	0.902	0.949	0.942
CCACACUUCAAACAAUCAGUC [Fam1B.1 aminoacylation ribozyme variant]	0.771	12.4	42.2	1.06	1.16	0.947
CCACACUUCAAGCAAUCGCAC [Fam1B.1 aminoacylation ribozyme variant]	0.814	0.672	0.785	0.889	0.465	0.76
CUAGUUCCAACAAUCGGUCUG [Fam1A.1 aminoacylation ribozyme variant]	0.877	9.72	9.79	1.08	1.25	1.06
AUACUUCAAACAAUCGCUCUG [Fam1A.1 aminoacylation ribozyme variant]	0.681	0.949	1.42	0.809	0.689	0.906
CUCCUUCAAACAAACGGUCUG [Fam1A.1 aminoacylation ribozyme variant]	0.666	1.26	0.716	0.706	0.599	0.778
